## Cleaved PARP after 72 h of treatment

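Human melanoma cell lines in 1,536-well plates were treated with a pair of drugs for 72 h, then fixed, stained and imaged. Values are the share of nuclei positive for cleaved PARP as a percentage of the same share in the DMSO control: 100 is the control level, higher means more apoptosis. Every drug was used at one fixed concentration, the higher of two screened. These are primary screening values without error estimates. The marker varies much from line to line, for technical or biological reasons.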
An unselected part of the screen is shown.
An entry leaves out what has no value listed here.
A dash means that no value is listed here.

Drugs:
pazopanib: Cc1ccc(Nc2nccc(N(C)c3ccc4c(C)n(C)nc4c3)n2)cc1S(N)(=O)=O at 2 µM
sorafenib: CNC(=O)c1cc(Oc2ccc(NC(=O)Nc3ccc(Cl)c(C(F)(F)F)c3)cc2)ccn1 at 2 µM
AZD7762: NC(=O)Nc1cc(-c2cccc(F)c2)sc1C(=O)N[C@H]1CCCNC1 at 0.1 µM
pioglitazone: CCc1ccc(CCOc2ccc(CC3SC(=O)NC3=O)cc2)nc1 (centres unmarked) at 10 µM
GW9662: O=C(Nc1ccccc1)c1cc([N+](=O)[O-])ccc1Cl at 10 µM
XAV939: Oc1nc(-c2ccc(C(F)(F)F)cc2)nc2c1CSCC2 at 10 µM
TCS401: O=C(O)C(=O)Nc1sc2c(c1C(=O)O)CCNC2 at 8.33 µM
CP-690550: C[C@@H]1CCN(C(=O)CC#N)C[C@@H]1N(C)c1ncnc2[nH]ccc12 at 5 µM
midostaurin: CO[C@@H]1[C@H](N(C)C(=O)c2ccccc2)C[C@H]2O[C@]1(C)n1c3ccccc3c3c4c(c5c6ccccc6n2c5c31)C(=O)NC4 at 0.4 µM

Pair,COLO 800,LB2518-MEL,IPC-298,WM1745,MeWo,UACC-62,G-361,WM3526,SK-MEL-5,A375,A101D,WM3619
pioglitazone + AZD7762,189,91.6,108,155,207,476,78.8,518,138,386,64.3,487
sorafenib + CP-690550,12.8,123,101,86.1,87.1,73.5,84.9,70.9,24.2,-,35.5,83.7
CP-690550 + GW9662,276,217,75.4,140,81.8,274,163,96.3,148,42.4,195,143
XAV939 + pazopanib,261,279,85.1,-,76.0,279,164,71.5,53.2,101,277,123
AZD7762 + midostaurin,339,225,221,342,259,119,263,946,213,-,133,411
GW9662 + pioglitazone,60.1,237,99.1,128,167,49.4,223,174,262,59.7,89.1,186
XAV939 + CP-690550,138,78.4,151,128,42.5,81.2,48.1,65.0,290,140,144,164
midostaurin + TCS401,187,40.8,49.1,221,39.9,90.6,49.9,86.5,295,101,147,116
XAV939 + GW9662,73.6,180,94.5,145,155,219,41.8,99.4,36.4,75.4,115,353
TCS401 + GW9662,92.4,224,231,131,66.4,165,93.9,160,193,27.0,97.7,151
CP-690550 + pazopanib,59.7,428,46.9,66.8,102,104,118,128,71.9,-,141,232
sorafenib + TCS401,121,55.1,105,-,121,78.2,89.2,103,49.7,30.7,84.1,91.4
sorafenib + pazopanib,64.2,389,98.0,125,88.3,166,98.7,175,389,69.0,72.4,77.7
CP-690550 + midostaurin,319,169,446,228,133,137,357,572,480,-,100,218
midostaurin + pazopanib,280,282,159,217,78.3,123,200,259,195,-,134,160
pazopanib + TCS401,180,245,52.6,-,272,162,216,113,118,67.4,195,102
pazopanib + pioglitazone,17.6,55.3,51.1,-,84.3,156,141,149,48.6,69.0,91.6,100
GW9662 + midostaurin,200,303,78.6,415,28.3,448,210,409,72.2,115,265,184
pioglitazone + midostaurin,281,98.9,74.1,342,189,174,667,422,229,167,225,164
sorafenib + pioglitazone,41.1,113,99.2,-,99.3,128,82.6,116,143,232,87.6,98.6
sorafenib + XAV939,54.4,49.8,91.8,-,48.8,174,256,87.7,225,141,68.3,98.8
pazopanib + GW9662,158,216,103,-,87.9,271,127,90.0,40.7,40.9,314,197
TCS401 + AZD7762,87.7,213,195,194,188,188,18.5,603,124,126,219,569
sorafenib + GW9662,217,57.8,95.7,-,31.1,193,112,138,95.1,30.6,223,133
AZD7762 + XAV939,200,299,103,189,101,197,104,200,34.9,99.7,130,266
TCS401 + pioglitazone,101,-,64.2,139,70.9,62.7,31.9,104,123,5.7,37.7,103
pioglitazone + CP-690550,122,66.0,45.3,197,167,44.2,79.2,105,113,135,41.6,82.7
AZD7762 + sorafenib,153,245,73.2,231,145,156,185,1160,112,-,139,379
AZD7762 + pazopanib,167,106,96.5,116,112,113,123,331,95.8,-,136,286
AZD7762 + GW9662,198,74.8,254,173,243,69.2,111,631,88.4,121,145,488
CP-690550 + TCS401,151,134,19.6,143,56.1,43.3,86.2,134,125,34.3,95.1,110
XAV939 + TCS401,229,152,30.9,158,73.1,88.1,242,105,162,25.0,100,122
midostaurin + XAV939,201,107,44.9,389,32.8,30.9,249,150,167,68.8,54.4,543
pioglitazone + XAV939,96.3,69.5,63.6,136,107,27.0,121,85.0,101,105,67.5,145
midostaurin + sorafenib,596,79.6,114,171,195,125,396,339,75.1,-,53.1,294

Some entries from above, unchanged:

- AZD7762 + sorafenib | COLO 800: 153; LB2518-MEL: 245; IPC-298: 73.2; WM1745: 231; MeWo: 145; UACC-62: 156; G-361: 185; WM3526: 1160; SK-MEL-5: 112; A101D: 139; WM3619: 379
- AZD7762 + GW9662 | COLO 800: 198; LB2518-MEL: 74.8; IPC-298: 254; WM1745: 173; MeWo: 243; UACC-62: 69.2; G-361: 111; WM3526: 631; SK-MEL-5: 88.4; A375: 121; A101D: 145; WM3619: 488
- CP-690550 + pazopanib | COLO 800: 59.7; LB2518-MEL: 428; IPC-298: 46.9; WM1745: 66.8; MeWo: 102; UACC-62: 104; G-361: 118; WM3526: 128; SK-MEL-5: 71.9; A101D: 141; WM3619: 232
- sorafenib + CP-690550 | COLO 800: 12.8; LB2518-MEL: 123; IPC-298: 101; WM1745: 86.1; MeWo: 87.1; UACC-62: 73.5; G-361: 84.9; WM3526: 70.9; SK-MEL-5: 24.2; A101D: 35.5; WM3619: 83.7

Values as published with doi:10.1371/journal.pone.0140310, rounded.